Our source for the log2 fold change values is the supplement of paper PMC12819154, “High-throughput peptide-centric local stability assay extends protein–ligand identification to membrane proteins, tissues and bacteria” (Nature Structural & Molecular Biology, 2025).

Amino acid sequences for entries named in this document (tags omitted). A change or cut given only in a name is not applied to a line headed by its entry.
UniProt O76070, whole entry: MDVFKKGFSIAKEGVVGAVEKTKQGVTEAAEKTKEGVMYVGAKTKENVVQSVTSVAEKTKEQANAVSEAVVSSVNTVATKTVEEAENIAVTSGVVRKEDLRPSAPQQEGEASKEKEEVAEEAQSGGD
UniProt O94851, whole entry: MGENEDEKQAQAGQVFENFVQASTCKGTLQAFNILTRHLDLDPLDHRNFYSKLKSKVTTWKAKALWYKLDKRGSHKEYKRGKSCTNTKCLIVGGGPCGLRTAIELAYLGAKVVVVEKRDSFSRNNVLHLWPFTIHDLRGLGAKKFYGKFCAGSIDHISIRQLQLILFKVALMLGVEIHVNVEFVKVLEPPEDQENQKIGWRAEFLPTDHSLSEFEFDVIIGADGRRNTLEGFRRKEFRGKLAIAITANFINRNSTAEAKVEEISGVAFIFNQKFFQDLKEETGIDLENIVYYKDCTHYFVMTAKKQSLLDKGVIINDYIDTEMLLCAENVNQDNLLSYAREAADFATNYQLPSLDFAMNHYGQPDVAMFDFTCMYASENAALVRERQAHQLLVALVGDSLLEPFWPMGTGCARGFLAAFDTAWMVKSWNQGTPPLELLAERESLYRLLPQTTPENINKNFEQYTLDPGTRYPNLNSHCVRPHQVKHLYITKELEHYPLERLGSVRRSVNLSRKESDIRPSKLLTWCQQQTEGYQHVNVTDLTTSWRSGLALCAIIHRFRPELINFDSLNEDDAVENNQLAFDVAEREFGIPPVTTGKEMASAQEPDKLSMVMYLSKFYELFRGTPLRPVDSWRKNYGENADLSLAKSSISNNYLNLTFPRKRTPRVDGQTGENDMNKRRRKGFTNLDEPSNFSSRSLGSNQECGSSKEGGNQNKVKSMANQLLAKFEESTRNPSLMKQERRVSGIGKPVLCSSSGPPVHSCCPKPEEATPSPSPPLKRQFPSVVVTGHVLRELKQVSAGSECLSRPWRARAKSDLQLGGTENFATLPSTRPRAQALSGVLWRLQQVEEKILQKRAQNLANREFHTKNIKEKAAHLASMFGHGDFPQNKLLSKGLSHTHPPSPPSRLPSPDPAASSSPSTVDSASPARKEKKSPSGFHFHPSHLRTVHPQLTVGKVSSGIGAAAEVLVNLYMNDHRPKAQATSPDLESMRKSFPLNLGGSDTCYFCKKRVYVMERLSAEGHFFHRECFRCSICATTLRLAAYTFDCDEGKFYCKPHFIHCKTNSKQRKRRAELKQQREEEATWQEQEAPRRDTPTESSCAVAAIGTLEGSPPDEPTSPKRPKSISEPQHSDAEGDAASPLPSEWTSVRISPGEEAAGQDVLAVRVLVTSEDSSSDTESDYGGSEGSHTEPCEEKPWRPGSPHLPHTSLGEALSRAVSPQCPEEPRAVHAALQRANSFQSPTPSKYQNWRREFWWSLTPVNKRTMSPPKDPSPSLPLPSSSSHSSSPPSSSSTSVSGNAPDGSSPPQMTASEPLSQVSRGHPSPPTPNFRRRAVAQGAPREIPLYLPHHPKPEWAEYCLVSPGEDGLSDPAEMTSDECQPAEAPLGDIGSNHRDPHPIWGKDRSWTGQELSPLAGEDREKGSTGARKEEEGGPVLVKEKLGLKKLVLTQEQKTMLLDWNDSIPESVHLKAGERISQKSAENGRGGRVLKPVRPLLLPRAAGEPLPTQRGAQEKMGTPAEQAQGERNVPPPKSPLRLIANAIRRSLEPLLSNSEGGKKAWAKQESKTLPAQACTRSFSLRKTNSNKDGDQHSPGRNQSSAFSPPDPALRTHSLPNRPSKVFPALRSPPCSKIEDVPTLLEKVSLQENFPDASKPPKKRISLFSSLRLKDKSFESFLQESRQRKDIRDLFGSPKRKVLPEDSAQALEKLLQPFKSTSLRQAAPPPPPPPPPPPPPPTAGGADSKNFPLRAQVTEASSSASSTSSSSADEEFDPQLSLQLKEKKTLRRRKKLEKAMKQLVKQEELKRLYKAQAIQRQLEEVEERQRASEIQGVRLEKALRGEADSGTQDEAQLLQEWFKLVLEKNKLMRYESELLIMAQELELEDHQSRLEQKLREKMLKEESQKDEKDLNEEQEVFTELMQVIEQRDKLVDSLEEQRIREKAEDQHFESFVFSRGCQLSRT
UniProt O75953: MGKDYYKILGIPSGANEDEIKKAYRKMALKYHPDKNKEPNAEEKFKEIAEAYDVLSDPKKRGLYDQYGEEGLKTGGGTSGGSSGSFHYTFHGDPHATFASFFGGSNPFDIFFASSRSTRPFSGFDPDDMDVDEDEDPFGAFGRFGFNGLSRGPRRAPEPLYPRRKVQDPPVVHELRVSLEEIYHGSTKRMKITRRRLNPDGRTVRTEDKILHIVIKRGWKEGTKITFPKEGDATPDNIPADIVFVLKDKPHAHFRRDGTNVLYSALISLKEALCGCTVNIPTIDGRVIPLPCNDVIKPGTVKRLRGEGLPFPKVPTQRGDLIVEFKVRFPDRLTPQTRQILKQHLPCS
UniProt O94782: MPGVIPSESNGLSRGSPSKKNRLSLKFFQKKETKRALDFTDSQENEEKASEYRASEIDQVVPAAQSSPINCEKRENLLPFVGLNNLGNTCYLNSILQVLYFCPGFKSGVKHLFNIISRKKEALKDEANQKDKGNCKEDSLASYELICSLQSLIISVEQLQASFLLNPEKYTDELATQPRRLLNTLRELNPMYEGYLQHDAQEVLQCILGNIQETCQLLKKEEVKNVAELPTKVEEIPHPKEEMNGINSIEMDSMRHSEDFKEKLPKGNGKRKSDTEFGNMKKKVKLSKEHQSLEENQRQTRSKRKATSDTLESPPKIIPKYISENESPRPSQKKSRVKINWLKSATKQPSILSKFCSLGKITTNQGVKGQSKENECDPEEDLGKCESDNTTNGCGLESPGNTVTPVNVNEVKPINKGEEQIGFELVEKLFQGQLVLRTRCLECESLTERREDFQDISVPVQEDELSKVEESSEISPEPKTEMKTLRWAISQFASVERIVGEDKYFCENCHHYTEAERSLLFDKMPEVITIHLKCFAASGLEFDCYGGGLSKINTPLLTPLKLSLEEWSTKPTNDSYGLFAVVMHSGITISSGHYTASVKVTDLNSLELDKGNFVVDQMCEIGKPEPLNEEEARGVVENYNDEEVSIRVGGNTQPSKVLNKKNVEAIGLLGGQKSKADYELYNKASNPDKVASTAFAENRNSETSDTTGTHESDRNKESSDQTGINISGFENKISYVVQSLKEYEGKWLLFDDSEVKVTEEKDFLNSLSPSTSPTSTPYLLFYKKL
UniProt O75820: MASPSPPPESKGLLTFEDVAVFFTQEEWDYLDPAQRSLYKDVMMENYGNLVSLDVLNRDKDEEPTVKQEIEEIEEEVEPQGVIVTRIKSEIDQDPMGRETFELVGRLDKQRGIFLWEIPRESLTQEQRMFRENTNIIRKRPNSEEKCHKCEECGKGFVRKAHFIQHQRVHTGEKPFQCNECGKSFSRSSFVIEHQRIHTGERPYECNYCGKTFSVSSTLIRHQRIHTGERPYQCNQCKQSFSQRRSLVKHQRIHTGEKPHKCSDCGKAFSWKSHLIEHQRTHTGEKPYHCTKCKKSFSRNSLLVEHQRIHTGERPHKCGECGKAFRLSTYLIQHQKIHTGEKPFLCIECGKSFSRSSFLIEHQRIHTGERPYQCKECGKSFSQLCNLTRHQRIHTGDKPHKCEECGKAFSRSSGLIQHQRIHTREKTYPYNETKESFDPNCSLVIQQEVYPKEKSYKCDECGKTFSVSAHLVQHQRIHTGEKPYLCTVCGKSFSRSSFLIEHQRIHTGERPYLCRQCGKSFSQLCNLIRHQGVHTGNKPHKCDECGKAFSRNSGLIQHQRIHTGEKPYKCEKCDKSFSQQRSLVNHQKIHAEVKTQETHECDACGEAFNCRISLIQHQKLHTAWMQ
UniProt O75976: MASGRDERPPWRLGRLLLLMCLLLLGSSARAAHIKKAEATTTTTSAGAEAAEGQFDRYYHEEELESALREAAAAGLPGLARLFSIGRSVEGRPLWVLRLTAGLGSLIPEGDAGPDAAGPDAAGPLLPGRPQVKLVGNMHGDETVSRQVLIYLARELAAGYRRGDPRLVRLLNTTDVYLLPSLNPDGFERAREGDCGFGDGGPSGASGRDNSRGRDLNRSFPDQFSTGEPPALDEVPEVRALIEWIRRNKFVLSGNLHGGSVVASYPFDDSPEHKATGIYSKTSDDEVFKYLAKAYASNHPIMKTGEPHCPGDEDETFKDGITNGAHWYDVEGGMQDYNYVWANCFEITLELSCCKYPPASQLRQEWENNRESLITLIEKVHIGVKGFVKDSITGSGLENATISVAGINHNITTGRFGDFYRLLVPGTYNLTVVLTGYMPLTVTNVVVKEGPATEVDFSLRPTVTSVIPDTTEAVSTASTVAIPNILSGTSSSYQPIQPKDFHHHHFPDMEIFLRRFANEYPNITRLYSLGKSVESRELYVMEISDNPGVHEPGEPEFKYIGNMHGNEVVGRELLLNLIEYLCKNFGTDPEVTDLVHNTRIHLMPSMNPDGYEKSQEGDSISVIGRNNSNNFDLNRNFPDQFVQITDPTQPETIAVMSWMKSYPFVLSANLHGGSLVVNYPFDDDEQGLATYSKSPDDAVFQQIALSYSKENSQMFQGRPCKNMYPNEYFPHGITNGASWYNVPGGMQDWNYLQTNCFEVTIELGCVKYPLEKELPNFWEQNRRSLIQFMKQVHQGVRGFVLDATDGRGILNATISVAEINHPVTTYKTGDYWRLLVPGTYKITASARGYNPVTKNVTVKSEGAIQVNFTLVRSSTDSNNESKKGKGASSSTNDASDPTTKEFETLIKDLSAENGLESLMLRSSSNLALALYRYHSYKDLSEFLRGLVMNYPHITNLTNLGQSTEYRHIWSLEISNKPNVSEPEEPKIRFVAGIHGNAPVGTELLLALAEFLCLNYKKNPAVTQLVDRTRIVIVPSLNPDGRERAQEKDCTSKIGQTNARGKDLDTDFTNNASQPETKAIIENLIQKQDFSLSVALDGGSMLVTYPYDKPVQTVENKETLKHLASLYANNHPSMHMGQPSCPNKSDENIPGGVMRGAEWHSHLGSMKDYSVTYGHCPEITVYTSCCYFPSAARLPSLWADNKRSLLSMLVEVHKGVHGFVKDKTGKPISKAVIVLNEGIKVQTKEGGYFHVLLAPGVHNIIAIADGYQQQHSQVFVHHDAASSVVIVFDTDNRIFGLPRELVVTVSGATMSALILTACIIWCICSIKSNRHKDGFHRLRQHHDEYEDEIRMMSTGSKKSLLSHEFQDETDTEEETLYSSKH
UniProt O94966: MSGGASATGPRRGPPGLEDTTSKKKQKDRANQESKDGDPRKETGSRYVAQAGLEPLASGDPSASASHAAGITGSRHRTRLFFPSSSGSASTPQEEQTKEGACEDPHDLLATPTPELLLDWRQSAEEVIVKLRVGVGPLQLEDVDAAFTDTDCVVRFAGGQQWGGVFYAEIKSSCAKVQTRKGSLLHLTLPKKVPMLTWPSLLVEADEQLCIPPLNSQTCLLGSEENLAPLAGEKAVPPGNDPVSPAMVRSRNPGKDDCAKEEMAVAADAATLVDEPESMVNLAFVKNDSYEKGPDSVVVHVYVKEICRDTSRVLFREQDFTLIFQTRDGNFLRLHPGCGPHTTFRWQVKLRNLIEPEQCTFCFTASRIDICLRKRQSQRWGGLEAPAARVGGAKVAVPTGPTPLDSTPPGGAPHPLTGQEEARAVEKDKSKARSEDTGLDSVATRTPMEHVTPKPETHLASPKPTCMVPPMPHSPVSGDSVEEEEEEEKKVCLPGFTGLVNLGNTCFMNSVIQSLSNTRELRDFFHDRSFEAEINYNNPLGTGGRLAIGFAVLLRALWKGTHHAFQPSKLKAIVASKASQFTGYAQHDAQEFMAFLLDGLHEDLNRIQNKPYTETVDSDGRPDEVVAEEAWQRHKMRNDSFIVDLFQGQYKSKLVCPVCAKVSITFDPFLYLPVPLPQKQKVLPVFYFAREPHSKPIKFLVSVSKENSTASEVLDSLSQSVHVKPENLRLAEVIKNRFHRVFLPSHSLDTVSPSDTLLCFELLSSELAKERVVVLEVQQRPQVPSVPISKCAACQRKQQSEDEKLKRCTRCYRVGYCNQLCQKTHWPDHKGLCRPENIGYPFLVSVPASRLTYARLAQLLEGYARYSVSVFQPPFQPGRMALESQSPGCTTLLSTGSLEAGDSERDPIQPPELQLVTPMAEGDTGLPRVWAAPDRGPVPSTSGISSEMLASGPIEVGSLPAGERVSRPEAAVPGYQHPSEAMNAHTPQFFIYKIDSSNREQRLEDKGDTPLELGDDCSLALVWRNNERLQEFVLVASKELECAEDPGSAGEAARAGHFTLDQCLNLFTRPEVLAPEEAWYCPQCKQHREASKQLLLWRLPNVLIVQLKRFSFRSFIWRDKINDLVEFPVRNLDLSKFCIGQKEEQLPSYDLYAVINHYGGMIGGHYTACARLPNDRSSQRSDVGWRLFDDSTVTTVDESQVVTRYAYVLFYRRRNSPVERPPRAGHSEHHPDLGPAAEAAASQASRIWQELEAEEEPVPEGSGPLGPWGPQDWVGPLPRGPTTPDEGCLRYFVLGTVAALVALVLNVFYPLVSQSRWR

Some of the results follow. Most entries show no effect beyond the scatter of the controls.

Compound in the assay: CN[C@@H]1C[C@H]2O[C@@](C)([C@@H]1OC)n1c3ccccc3c3c4c(c5c6ccccc6n2c5c31)C(=O)NC4 [staurosporine]
The experiment in a line: log2 fold change of tryptic peptide abundance, ligand vs vehicle (limited proteolysis) (log2 ratio); higher = more trypsin-susceptible (destabilized). Particulars: ligand concentration: 20 uM; sample: K562 cleared lysate; digestion: 4 min, 22 C (HT-PELSA RT4min, Orbitrap Astral).
As for “UniProt O95232 (peptide sequence: WDHESVCK, peptide start residue: 29)”, the log2 fold change turned out to be 0.276.

On to “BAG4 (peptide sequence: WIYPQQDCQTEAPPLR, peptide start residue: 186) (UniProt O95429)”, for which the log2 fold change was -0.415.

With “GGPS1 (peptide sequence: ILLEPYK, peptide start residue: 11) (UniProt O95749)”, the log2 fold change is -0.165.

On to “MPDZ (peptide sequence: ISLGQQSGR, peptide start residue: 1099) (UniProt O75970)”, for which the log2 fold change is -0.707.

As to “AP1G2 (peptide sequence: AILTAVHMIR, peptide start residue: 158) (UniProt O75843)”, the log2 fold change came out at 0.376.

For “EML2 (peptide sequence: LLASADDFGK, peptide start residue: 587) (UniProt O95834)”, the log2 fold change turned out to be 0.154.

As to “UniProt O95267 (peptide sequence: LIDTTQINAR, peptide start residue: 168)”, the log2 fold change is 0.0212.

On to “MBD4 (peptide sequence: MAIPVLWK, peptide start residue: 473) (UniProt O95243)”, for which the log2 fold change is 0.345.

Regarding “YIF1A (peptide sequence: AYHSGYGAHGSK, peptide start residue: 2) (UniProt O95070)”, the log2 fold change was -0.00812.

Consider “SNCG (peptide sequence: TKEGVMYVGAK, peptide start residue: 33) (UniProt O76070)”, for which the log2 fold change is -0.224.

As to “AP2A2 (peptide sequence: SSPLIQFHLLHSK, peptide start residue: 516) (UniProt O94973)”, the log2 fold change turned out to be 0.143.

For “SLU7 (peptide sequence: KGACENCGAMTHKK, peptide start residue: 117) (UniProt O95391)”, the log2 fold change is 1.16.

In the case of “MICAL2 (peptide sequence: VDGQTGENDMNKR, peptide start residue: 666) (UniProt O94851)”, the log2 fold change was -0.615.

As to “UniProt O75953 (peptide sequence: FGFNGLSR, peptide start residue: 144)”, the log2 fold change was found to be 0.0664.

In the case of “USP1 (peptide sequence: PGVIPSESNGLSR, peptide start residue: 2) (UniProt O94782)”, the log2 fold change came out at 0.163.

For “UniProt O75820 (peptide sequence: VHTGEKPFQCNECGK, peptide start residue: 169)”, the log2 fold change was -0.473.

In the case of “BANF1 (peptide sequence: AYVVLGQFLVLKKDEDLFR, peptide start residue: 42) (UniProt O75531)”, the log2 fold change amounted to 0.959.

On to “UniProt O75771 (peptide sequence: LLQLLQAK, peptide start residue: 146)”, for which the log2 fold change is 0.16.

As for “SMNDC1 (peptide sequence: IKELEQEREDQK, peptide start residue: 164) (UniProt O75940)”, the log2 fold change is -0.103.

On to “UniProt O94953 (peptide sequence: AAFNQEHVSCQQAFEHFAQK, peptide start residue: 538)”, for which the log2 fold change is -0.667.

With “UniProt O75444 (peptide sequence: KEPVETDR, peptide start residue: 34)”, the log2 fold change is 0.0742.

Regarding “RPP40 (peptide sequence: HLLVCEK, peptide start residue: 13) (UniProt O75818)”, the log2 fold change amounted to 0.243.

As for “UniProt O95319 (peptide sequence: MFVGQIPR, peptide start residue: 42)”, the log2 fold change was determined as 0.239.

Turning to “FLOT1 (peptide sequence: SQLIMQAEAEAASVR, peptide start residue: 303) (UniProt O75955)”, the log2 fold change is -0.425.

Turning to “UniProt O95521 (peptide sequence: WKLQVLDLR, peptide start residue: 117)”, the log2 fold change was determined as 0.194.

For “ZFAND5 (peptide sequence: ADTSLNNCEGAAGSTSEK, peptide start residue: 69) (UniProt O76080)”, the log2 fold change is -0.228.

On to “CPD (peptide sequence: MMSTGSKK, peptide start residue: 1350) (UniProt O75976)”, for which the log2 fold change is -0.163.

Take “UniProt O95931 (peptide sequence: LVMAYEEKEER, peptide start residue: 53)”: the log2 fold change worked out at 0.257.

For the target “ERAL1 (peptide sequence: STLSNQLLGR, peptide start residue: 127) (UniProt O75616)”, the log2 fold change amounted to 0.146.

Turning to “UniProt O75808 (peptide sequence: LAELLSGKR, peptide start residue: 286)”, the log2 fold change came out at 0.434.

“IPO7 (peptide sequence: SPLVAAMQHFLPVLK, peptide start residue: 168) (UniProt O95373)”: the log2 fold change came out at 0.609.

For the target “SNRNP200 (peptide sequence: DEPTGEVLSLVGKLEGTR, peptide start residue: 34) (UniProt O75643)”, the log2 fold change is -0.13.

For “USP19 (peptide sequence: YAYVLFYR, peptide start residue: 1205) (UniProt O94966)”, the log2 fold change was determined as 0.278.

Turning to “E2F6 (peptide sequence: EDSITVHIR, peptide start residue: 217) (UniProt O75461)”, the log2 fold change was -0.465.

For the target “MTRF1 (peptide sequence: YMENLSK, peptide start residue: 78) (UniProt O75570)”, the log2 fold change was 0.195.

With “KLHL18 (peptide sequence: DLVDEAKDYHLMPER, peptide start residue: 255) (UniProt O94889)”, the log2 fold change stood at 0.328.
